# Values joined by “and” are separate entries in the source; they are usually repeats but may differ in a detail not shown here. Equal values may be shown once. The campaign covered roughly 400,000 compounds. About 3,700 (0.93%) were called active. The shares of active, inactive and inconclusive entries below differ from those in the screen. Calls follow the shape of the dose curve; as a rule, active = well fitted inhibition curve with a large enough effect; inconclusive = small, poorly fitted or top-dose-only effect, or another doubt; inactive = no such curve, though single readings can be large or run the other way. A potency beside an inconclusive call is a rough fit, not a confirmed value.
# Protein sequences, listed by entry. Tags and fused reporters are not part of them. Lines headed by an entry give the natural chain unless they say otherwise; changes in a name come on top.
# UniProt P11473: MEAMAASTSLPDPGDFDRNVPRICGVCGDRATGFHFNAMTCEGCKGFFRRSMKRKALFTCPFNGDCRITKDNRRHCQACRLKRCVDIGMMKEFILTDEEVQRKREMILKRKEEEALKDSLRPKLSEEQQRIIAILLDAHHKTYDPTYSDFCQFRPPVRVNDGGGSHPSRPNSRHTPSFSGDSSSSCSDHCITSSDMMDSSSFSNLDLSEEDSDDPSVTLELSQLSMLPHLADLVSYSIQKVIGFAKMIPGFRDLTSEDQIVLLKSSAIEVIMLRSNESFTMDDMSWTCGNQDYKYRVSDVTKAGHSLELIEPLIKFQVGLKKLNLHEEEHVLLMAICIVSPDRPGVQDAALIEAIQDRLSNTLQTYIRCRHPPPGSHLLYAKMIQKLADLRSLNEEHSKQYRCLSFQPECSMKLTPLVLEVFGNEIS
# Molecular target: Vitamin D3 receptor (Homo sapiens) (UniProt P11473)
# Assay: Inhibitors of the vitamin D receptor (VDR): qHTS
# Conditions: VDR-SRC2-3 peptide fluorescence polarization, 2 h; max response, negative = inhibition: active compounds read low
# Summary of the method: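 Measured by FP: displacement of SRC2-3 coactivator peptide from VDR by library compounds, following a two-hour ambient incubation.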
# % is scaled to controls: 0 for no effect and ±100 for the full control effect; potency is read from the fitted curve at half-maximal effect.
Structure (SMILES),Potency,"max response, negative = inhibition"
O=C(Cc1ccc([N+](=O)[O-])cc1)N1N=C(c2ccncc2)CC1(O)C(F)(F)F (centres undefined),"inconclusive: 12.6 µM [inhibitor, partial curve, poor fit]",–
CC1CN(C(=O)CSc2nnc3c(Cl)cc(Cl)cn23)CC(C)O1 (centres undefined),–,inactive: -4.01%
C[C@@H]1O[C@@H](O[C@H]2[C@H](Oc3cc(O)c4c(c3)O[C@H](c3ccc(O)cc3)CC4=O)O[C@H](CO)[C@@H](O)[C@@H]2O)[C@H](O)[C@H](O)[C@H]1O,–,inactive: -8.29% and inactive: 5.4%
CCC(CC)c1nnc(NC(=O)COc2ccc3c(c2)OCO3)s1,active: 79.4 µM,–
CS(=O)(=O)c1ncc(Cl)c(C(=O)Nc2ccc(OC(F)F)cc2)n1,active: 10 µM,–
CCOc1ccc(N2C(=O)C(=O)/C(=C(/O)c3ccccc3)C2c2ccccc2[N+](=O)[O-])cc1 (centres undefined),–,inactive: 6.92%
CCOC(=O)C(/C=C(\C#N)C(=O)OCC)=C(/N)N1CCN(c2ccccc2)CC1,"inconclusive: 79.4 µM [inhibitor, single point]",–
COC(=O)Cn1c(C)c(/C=C/c2cc[n+](C)cc2)c2ccccc21,–,inactive: -4%
COc1cc(C(=O)NCCNC(=O)c2ccco2)cc(OC)c1OC,"inconclusive: 63.1 µM [inhibitor, partial curve, poor fit]",–
Cc1ccc(NC(=O)CC2S/C(=N/c3nccs3)N(C)C2=O)cc1C (centres undefined),–,inactive: 1.32%
CCCOc1cccc(C2C(C(=O)c3ccc(C)o3)=C(O)C(=O)N2c2nc(C)c(C(C)=O)s2)c1 (centres undefined),"inconclusive: 12.6 µM [inhibitor, partial curve, poor fit]",–
O=C1OC(c2ccco2)=N/C1=C\c1ccc(-c2cccc(C(F)(F)F)c2)o1,"inconclusive: 56.2 µM [inhibitor, partial curve, poor fit]",–
Cc1cccc(C(=O)Nc2c(C(=O)NCc3ccc(Cl)cc3)sc3nc(C)cc(C)c23)c1,–,inactive: 0.914%
C#CCOc1c(Br)cc(/C=C2/C(=O)ON=C2C)cc1OCC,"inconclusive: 14.1 µM [inhibitor, full curve, poor fit]",–
COc1ccc(OC)c(-c2csc(N(CC3CCCO3)C(=O)C3CCCCC3)n2)c1 (centres undefined),"inconclusive: 12.6 µM [inhibitor, partial curve]",–
O=c1oc(-c2cccc([N+](=O)[O-])c2)nc2ccccc12,"inconclusive: 79.4 µM [inhibitor, single point]",–
CCOC(=O)c1cc2c(=O)n3ccccc3nc2n(Cc2ccco2)c1=NC(=O)c1c(F)cccc1Cl,"inconclusive: 89.1 µM [inhibitor, single point]",–
Cn1c(/C=C/c2cccc([N+](=O)[O-])c2)c([N+](=O)[O-])c(=O)n(C)c1=O,"inconclusive: 79.4 µM [inhibitor, single point]",–
CCOC(=O)c1c(NC2OC(=O)c3c2ccc(OC)c3OC)sc(C(=O)OC(C)(C)C)c1C (centres undefined),"inconclusive: 89.1 µM [inhibitor, partial curve, poor fit]",–
CC1(C)CC(=O)C2=C(C1)OC(N)=C(C#N)C2c1ccc2c(c1)OCO2 (centres undefined),"inconclusive: 89.1 µM [inhibitor, single point]",–
O=C(CSC1=NNC(c2ccccn2)S1)Nc1cccc(Cl)c1 (centres undefined),"inconclusive: 100 µM [inhibitor, single point]",–

Structure (SMILES),Potency,"max response, negative = inhibition"
Cc1noc(C)c1COC(=O)CCN1c2ccccc2Sc2ccccc21,"inconclusive: 14.1 µM [inhibitor, partial curve, poor fit]",–
O=C(NCc1ccccc1)c1nc(S(=O)(=O)Cc2ccccc2)ncc1Cl,"inconclusive: 31.6 µM [inhibitor, single point]",inactive: -20.9%
O=C(Cn1c(=O)c2cccn2c2ccc(F)cc21)NCCCN1CCN(c2ccccc2F)CC1,–,inactive: 4.41%
CCNC(=O)COc1ccc(/C=C2\COc3ccccc3C2=O)cc1OC,active: 35.5 µM,–
C=C1C(=O)O[C@H]2[C@H]1[C@H](OC(=O)/C(C)=C\C)C[C@]1(CO1)[C@@H]1[C@H](OC(C)=O)C=C(C)[C@]21O,"inconclusive: 79.4 µM [inhibitor, single point]",–
S=C(NCc1ccccc1)NCc1ccco1,–,inactive: -18.6%
CCc1nnc(NS(=O)(=O)c2ccc(NCc3ccccc3O)cc2)s1,"inconclusive: 100 µM [inhibitor, partial curve, poor fit]",–
CCOc1ccc(C2NC(=O)C(C#N)=C(S)N2c2cccc(C)c2)cc1OC (centres undefined),active: 79.4 µM,–
CCN(CC)c1ccc(NC(=O)Nc2ccccc2C(F)(F)F)cc1,"inconclusive: 28.2 µM [inhibitor, partial curve, poor fit]",–
NS(=O)(=O)c1ccc(N/N=C/c2ccc(O)c(O)c2O)c([N+](=O)[O-])c1,"inconclusive: 89.1 µM [inhibitor, single point]",–
Cc1cccc(OCc2nnc(N)s2)c1,"inconclusive: 39.8 µM [inhibitor, full curve, poor fit]",–
CCOC(=O)c1cccc(NC(=O)C2CCCN(S(=O)(=O)c3c(C)nn(C)c3C)C2)c1 (centres undefined),–,inactive: -12.5%
Cc1cccc(N2CCN(C(=O)C3CCN(S(=O)(=O)c4c(C)noc4C)CC3)CC2)c1C,–,inactive: -10.6% and inactive: -15.8%
Cc1ccc(NC(=O)c2nc[nH]c2C(=O)NCCN(CCNC(=O)c2[nH]cnc2C(=O)Nc2ccc(C)cc2)CCNC(=O)c2[nH]cnc2C(=O)Nc2ccc(C)cc2)cc1,"inconclusive: 1.78 µM [inhibitor, full curve, poor fit]",–
O=C(/C=C/c1ccc(Cl)c([N+](=O)[O-])c1)c1cccnc1,"inconclusive: 8.91 µM [inhibitor, partial curve, poor fit]",–
Nc1nc(CN2CCN(c3cccc(Cl)c3)CC2)nc(N2CCCc3ccccc32)n1,–,inactive: -21.7%
CCCCCC(=O)NNC(=S)NC(=O)c1ccc([N+](=O)[O-])cc1,"inconclusive: 89.1 µM [inhibitor, partial curve, poor fit]",–
Cc1ccccc1-c1ccc2ncnc(NCc3cccnc3)c2c1,"inconclusive: 70.8 µM [inhibitor, partial curve, poor fit]",–
COc1ccc(C(=S)N(C)C)cc1OC,"inconclusive: 50.1 µM [inhibitor, partial curve, poor fit]",–
Cc1cc(=O)[nH]c(Nc2ccc(N(C)C)cc2)n1,"inconclusive: 100 µM [inhibitor, single point]",–
Clc1ccccc1/C=N/c1cc(-c2ccccc2)nn1-c1ccccc1,"inconclusive: 14.1 µM [inhibitor, single point]",–

Structure (SMILES),Potency,"max response, negative = inhibition"
[O-]/[N+](=C\c1ccc(OC(F)F)cc1)c1ccccc1,"inconclusive: 70.8 µM [inhibitor, partial curve]",–
CC1CN(C(=S)SCC(=O)c2ccc(Cl)cc2)CC(C)O1 (centres undefined),–,inactive: -9.21%
COc1ccc(/C=C/C(=O)O)cc1S(=O)(=O)N1CCCC1,–,inactive: 7.55%
CC1(C)CC(=O)C(=Cc2cn(-c3ccccc3)nc2-c2ccc(Cl)cc2)C(=O)C1,"inconclusive: 89.1 µM [inhibitor, partial curve, poor fit]",–
O=C(N/N=C\c1ccc(Cl)s1)c1ccc(Cn2cccn2)o1,active: 70.8 µM,–
CCOC(=O)c1sc(=S)n(C)c1NC(=O)c1ccccc1C,"inconclusive: 56.2 µM [inhibitor, partial curve, poor fit]",–
COC(=O)CCC/C=C1/SCC(NC(=O)c2ccccc2)C1=O (centres undefined),active: 89.1 µM,–
O=C(CCC(=O)c1ccccc1)NC1CCCN(Cc2ccccc2F)C1 (centres undefined),"inconclusive: 79.4 µM [inhibitor, partial curve, poor fit]",–
Cc1cc(C)c2oc(-c3ccc(C)c(NC(=O)/C=C/c4ccco4)c3)nc2c1,"inconclusive: 50.1 µM [inhibitor, partial curve, poor fit]",–
Cn1c(=O)n(CC(=O)OCc2ccccc2)c(=O)c2c1nc1n2CCCN1C1CCCCC1,–,inactive: 7.02%
CC(=NCCN1CCN(C(C)=C2C(=O)c3ccccc3C2=O)CC1)C1=C(O)CC(C)(C)CC1=O,"inconclusive: 70.8 µM [inhibitor, partial curve, poor fit]",–
COc1ccc(-n2c(=O)c3c(c4cc(OC)ccc4n3C)n(CCC(C)C)c2=O)cc1,–,inactive: 4.19%
CN1CCC(=NNc2ncnc3sc4c(c23)CCCC4)CC1,"inconclusive: 39.8 µM [inhibitor, partial curve]",–
CCOC(=O)C1CCCN(Cc2ccc(OCc3ccccc3)cc2)C1 (centres undefined),–,inactive: -16.1%
CN1CCN(C2=C(Cl)C(=O)N(c3ccc(Cl)c(Cl)c3)C2=O)CC1,"inconclusive: 50.1 µM [inhibitor, partial curve, poor fit]",–
CC(C)OC(=O)CSc1nc2ccccc2s1,–,inactive: -1.58%
O=C(COC(=O)Cc1ccsc1)Nc1cccc(F)c1,active: 89.1 µM,–
COc1ccc(/C=C2/CSC/C(=C/c3ccc(OC)c(OC)c3)C2=O)cc1OC,"inconclusive: 79.4 µM [inhibitor, single point]",–
O=C(NCc1ccc2c(c1)OCO2)C1CCCCC1,"inconclusive: 50.1 µM [inhibitor, partial curve, poor fit]",–
C[C@@H](C(=O)Nc1nc(-c2ccccn2)cs1)N1C(=O)C2CCCCC2C1=O (some centres undefined),"inconclusive: 70.8 µM [inhibitor, single point]",–
O=C(CNc1ccc2ccccc2c1)N/N=C/c1ccc([N+](=O)[O-])o1,–,inactive: -6.08%

# Full records, quoted from the list. Order of values: Potency | max response, negative = inhibition
# Cn1c(=O)n(CC(=O)OCc2ccccc2)c(=O)c2c1nc1n2CCCN1C1CCCCC1 reads – | inactive: 7.02%
# O=C(CNc1ccc2ccccc2c1)N/N=C/c1ccc([N+](=O)[O-])o1 reads – | inactive: -6.08%
